Reference: PMC4238974
Results are given in words; binding and its absence hold for the method and conditions named. In cells and extracts the contact can be indirect.

Chains of the proteins cited; added tags and fusions are not shown.
UniProt V5IN79: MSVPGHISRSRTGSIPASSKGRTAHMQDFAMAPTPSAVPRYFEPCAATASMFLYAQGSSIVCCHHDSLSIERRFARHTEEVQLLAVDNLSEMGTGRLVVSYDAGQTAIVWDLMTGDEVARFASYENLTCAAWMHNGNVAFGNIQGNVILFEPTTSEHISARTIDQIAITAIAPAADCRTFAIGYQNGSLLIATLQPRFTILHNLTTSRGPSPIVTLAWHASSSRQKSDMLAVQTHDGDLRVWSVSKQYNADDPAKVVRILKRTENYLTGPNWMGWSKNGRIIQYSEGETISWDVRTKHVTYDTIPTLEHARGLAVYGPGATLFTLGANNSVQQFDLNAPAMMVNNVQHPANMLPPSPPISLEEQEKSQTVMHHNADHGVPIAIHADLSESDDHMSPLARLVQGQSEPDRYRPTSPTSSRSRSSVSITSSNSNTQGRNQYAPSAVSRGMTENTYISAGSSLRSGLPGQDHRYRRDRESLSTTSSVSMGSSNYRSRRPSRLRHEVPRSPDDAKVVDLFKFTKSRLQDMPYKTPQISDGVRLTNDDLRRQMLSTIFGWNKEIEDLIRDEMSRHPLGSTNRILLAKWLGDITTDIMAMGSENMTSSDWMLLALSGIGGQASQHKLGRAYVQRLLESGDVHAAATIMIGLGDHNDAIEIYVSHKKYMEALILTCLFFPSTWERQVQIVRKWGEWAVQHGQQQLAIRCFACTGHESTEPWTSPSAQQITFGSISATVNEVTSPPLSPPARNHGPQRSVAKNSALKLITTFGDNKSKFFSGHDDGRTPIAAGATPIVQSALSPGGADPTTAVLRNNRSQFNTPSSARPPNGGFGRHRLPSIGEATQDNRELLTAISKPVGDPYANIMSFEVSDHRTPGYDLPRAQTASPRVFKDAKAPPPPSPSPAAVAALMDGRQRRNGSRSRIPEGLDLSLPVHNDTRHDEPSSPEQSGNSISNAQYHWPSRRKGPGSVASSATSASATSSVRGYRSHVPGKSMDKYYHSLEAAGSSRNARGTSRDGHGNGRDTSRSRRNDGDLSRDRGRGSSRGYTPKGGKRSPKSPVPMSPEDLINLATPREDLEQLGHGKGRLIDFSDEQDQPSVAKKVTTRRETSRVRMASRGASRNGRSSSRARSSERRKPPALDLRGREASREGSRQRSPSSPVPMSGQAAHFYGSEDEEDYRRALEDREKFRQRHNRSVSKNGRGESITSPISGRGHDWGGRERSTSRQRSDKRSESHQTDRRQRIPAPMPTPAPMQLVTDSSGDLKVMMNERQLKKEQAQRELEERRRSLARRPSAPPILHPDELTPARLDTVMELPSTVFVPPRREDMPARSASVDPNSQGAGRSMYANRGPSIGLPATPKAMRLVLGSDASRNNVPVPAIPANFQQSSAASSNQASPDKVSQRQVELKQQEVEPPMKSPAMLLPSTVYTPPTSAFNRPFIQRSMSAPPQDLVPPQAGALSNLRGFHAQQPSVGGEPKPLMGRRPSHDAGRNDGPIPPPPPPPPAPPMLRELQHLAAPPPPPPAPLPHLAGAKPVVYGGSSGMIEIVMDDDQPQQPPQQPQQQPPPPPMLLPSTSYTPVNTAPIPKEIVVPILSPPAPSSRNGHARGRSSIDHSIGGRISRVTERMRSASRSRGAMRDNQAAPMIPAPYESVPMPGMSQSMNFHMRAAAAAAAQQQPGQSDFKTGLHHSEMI

Target: HAM-5-GFP (full length HAM-5, hyphal anastomosis-5, tagged with GFP) (Neurospora crassa) (UniProt V5IN79)
Assay: co-IP; lysate of 5 hr-old N. crassa germlings; anti-GFP antibody covalently bound to Protein G Dynabeads, overnight at 4°C, washed three times with PBS; blot probed with anti-mCherry antibodies

binding: no binding
B1: SO-mCherry (protein, UniProt Q7SDK1 1-1304)
chain: MSRSRGVPDEELFISRPRPSDEDCDSPTVEPLRIFKPMSPKLPGAADKASENRYKYPAPPTSSAASASASKPSIAPLPGLPGLPPLPSFPLPPGASSSAAPLPYPDDDLSRPTQASKPARAPYPVDDVRRPSPASSTGRIYSPPPVSSSPQLHNDTTPRLNISPIEKKPGLADRRGAVPKPLQSPDSPNGDDLFAKPLGRPPQQPALQPVHPAQKISNAYQQKPYYPPPGGGNVRMNSEPSIARISSTASTSTTRASRGSPPPPETPIVEPGVVPGGGIEARYAAAGISGTATLTSLQAQTAQSAAAQSRLAQYGGQRPPSQPQQHSQHPALAQSQQQQQPQAQAQPPRPWTPTETPDQQPFGPPTVYQGDAVAQNPQPARPQPQQQNSFNLPKNPEPVSNAPAGSSLQVSVLEQDFQRMQASTPPPAYSSVTPNASSNYPAEKQRPAQTHPATASTTTTTTNNNNNSHSNNATPNPTSRPATTASGSSSRPVNTASPAPASSIHKPKPVAVAASQTPAQQHPGHPAFANEPQHPAQVAHNVGHPALQHTPSLMASTQAPPPLPEGWIAHLDQNSGQYYYIHLATQATQWEFPKGPNPISHEAAPLSPTASTYGNPLASPLLGGKTGLASPMFHPQTPGYAESIMTVASAAPSGFTGPPPSAGVDMYKIMPTNGVYFGPYLRYVNMDLEKGVWHGSILIVTDAPQPPTIHIHLSVDLSPNPRQLIPHNIWTHQRWVFYKYDMDLQMSEHGTERWTYAVTSHLGCTRYEFIVAGRYETGWRMIAHSGNDFAPSTNQNERAKLGGVGFMWKDILQKNVECGGFHVQLGLGDQIYGDRLWREVPILKQWLAIAGRENRKNVPWTARHEEDVTHAYFHYYTSHFDQPFMREAFAQIPHVLQIDDHDIFDGFGSYPEYMQSSAIFKNIGRIAIDMYLLFQHHTTVEMLRNVSSDMDLFTITGAGWHFVKYLGPAVVVVGPDCRSERTQTRVMAGPTYQGLFPKVAMLPPSVQHCIWMLSVPVVYPRLETVETLANTFATGKKAVNTTYNLLGKVTSSVAGVVGGKEVVAHGFKEVKRAVGKSGLMGNVLNQFGEIDIAEELKDLWTHESKDLERTYLIRTLQGIAQQKGIRMTFLSGDVNSAGAGLLHDPSHPSDHKTMYQLITSPIVAAPCSSYLLKALHSGSNSNKLLYVPLNGHKSTHEVSDTKEDMMEIFHTDASGAAREYKKLMARRNYVAIVAYDPDAGVNMGMGMGGLQQTGYAASVHSGGSNGSGLNKLSLAVDFVVQGDGAFTATTKYGPVIVPHLEYGH
